Measured values from the supplement of paper PMC11006884.
The list shows a part of the results, in another mix than the full data.

What follows are targets tested with COC(=O)C#Cc1ccccc1 [methyl 3-phenylpropiolate] (assay: log2 ratio of iodoacetamide-alkyne labeling of the cysteine site, DMSO over compound (competition); higher = stronger covalent engagement of the cysteine by the compound, active = 1 or more). Conditions: 500 µM; treatment time 1 h; system: HEK293T cell lysate.
Summary of the method: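 HEK293T lysate at 2 mg/mL was treated with vehicle or electrophile (500 µM) for 1 h at ambient temperature, then labelled with iodoacetamide alkyne (1 h), clicked to sCIP-TMT reagents, pooled, digested with trypsin overnight at 37 °C, enriched on streptavidin and eluted with acid. Peptides were analysed by Orbitrap Eclipse LC-MS/MS with FAIMS and quantified in FragPipe, using duplicate channels and three replicates, with cysteines quantified in only one replicate excluded. The log2 competition ratio for each cysteine is the mean control-channel reporter intensity divided by the mean compound-channel reporter intensity.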

Target	log2 ratio of iodoacetamide-alkyne labeling
GART C93 (UniProt P22102)	inactive: 0.192
TUBG1 C316 (UniProt P23258)	inactive: 0.154
TKT C41 (UniProt P29401)	inactive: 0.0725
RPL10 C195 (UniProt P27635)	inactive: 0.694
VDAC1 C127 (UniProt P21796)	inactive: 0.0443
UQCRC2 C192 (UniProt P22695)	inactive: 0.435
TUBG1 C201 (UniProt P23258)	inactive: 0.173
ANXA7 C285 (UniProt P20073)	inactive: 0.0794
PSMC3 C387 (UniProt P17980)	inactive: -0.0995
CFL1 C139 (UniProt P23528)	inactive: 0.409
CAD C1636 (UniProt P27708)	inactive: 0.128
CFL1 C147 (UniProt P23528)	inactive: 0.053
TPP2 C967 (UniProt P29144)	inactive: 0.00692
EIF2S2 C226 (UniProt P20042)	inactive: 0.0653
UniProt P26639_C630	inactive: 0.323
LAP3 C445 (UniProt P28838)	inactive: 0.00649
PML C338 (UniProt P29590)	inactive: 0.413
MCM3 C360 (UniProt P25205)	inactive: 0.118
UniProt P28482_C65	inactive: 0.107

Target	log2 ratio of iodoacetamide-alkyne labeling
CAST C661 (UniProt P20810)	inactive: 0.385
FLNA C574 (UniProt P21333)	inactive: -0.0328
PSMA1 C156 (UniProt P25786)	inactive: 0.136
HK1 C813 (UniProt P19367)	inactive: 0.174
ATP6V1B2 C207 (UniProt P21281)	inactive: 0.425
UniProt P19784_C336	inactive: 0.273
PAICS C63 (UniProt P22234)	inactive: 0.0152
FLNA C649 (UniProt P21333)	inactive: -0.00436
UniProt P28066_C76	inactive: -0.0535
MSH3 C166 (UniProt P20585)	inactive: 0.296
UniProt P25398_C106	inactive: -0.0453
RPL17 C15 (UniProt P18621)	inactive: 0.423
FECH C196 (UniProt P22830)	inactive: 0.356
SCP2 C495 (UniProt P22307)	inactive: 0.137
VARS C112 (UniProt P26640)	inactive: 0.0679
ACAT1 C196 (UniProt P24752)	inactive: 0.19
WARS C62 (UniProt P23381)	inactive: -0.0517
ME2 C120 (UniProt P23368)	inactive: -0.0679
FLNA C2601 (UniProt P21333)	inactive: 0.299

Part of the list above, with bars between the fields.
Target | log2 ratio of iodoacetamide-alkyne labeling
GART C93 (UniProt P22102) | inactive: 0.192
RPL10 C195 (UniProt P27635) | inactive: 0.694
ANXA7 C285 (UniProt P20073) | inactive: 0.0794
PSMC3 C387 (UniProt P17980) | inactive: -0.0995
CFL1 C147 (UniProt P23528) | inactive: 0.053
TPP2 C967 (UniProt P29144) | inactive: 0.00692
EIF2S2 C226 (UniProt P20042) | inactive: 0.0653
HK1 C813 (UniProt P19367) | inactive: 0.174
UniProt P19784_C336 | inactive: 0.273
RPL17 C15 (UniProt P18621) | inactive: 0.423
ME2 C120 (UniProt P23368) | inactive: -0.0679
